Measured values published in PubChem BioAssay AID485314 (National Center for Advancing Translational Sciences (NCATS), 2010).
In all, about 340,000 compounds went through this assay and about 4,500 (1.3%) were called active. The shares of active, inactive and inconclusive entries below differ from those in the screen. Calls come from the whole dose curve; as a rule, active = well fitted inhibition curve with a large enough effect; inconclusive = small, poorly fitted or top-dose-only effect, or another doubt; inactive = no such curve, though single readings can be large or run the other way. A potency beside an inconclusive call is a rough fit, not a confirmed value.
% is set by controls: 0 for no effect and ±100 for the full control effect; potency is the fitted concentration of half-maximal effect.

What follows are molecules tested against DNA polymerase beta (Homo sapiens) (UniProt P06746) (assay: qHTS Assay for Inhibitors of DNA Polymerase Beta). Conditions: Pol beta primer extension/strand displacement, fluorescence kinetic; activity change, negative = inhibition: at 114 µM (top of the series).
In short: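 Preincubation: enzyme (10 nM) with compound, 15 min, RT. Reaction: substrate added to 50 nM final. Reads: 0 and 10 min. Analysis: normalized, Hill fit.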
With `Cc1cccc(C(=O)Nc2c(C(=O)NCc3ccc(Cl)cc3)sc3nc(C)cc(C)c23)c1` the “activity change, negative = inhibition” value was inactive: 37%. For `COc1ccc(OCC(=O)Nc2ccc(C(=O)Nc3ccccc3C(=O)O)cc2)cc1`, the Potency was inconclusive: 89.1 µM [inhibitor, single point]. For `CC(=O)Nc1ccc(S(=O)(=O)Nc2cc(-c3cn4ccccc4n3)ccc2C)cc1`, the “activity change, negative = inhibition” value was inactive: 40.1%. In the case of `CC(=O)N1c2ccc(S(=O)(=O)NCC3CCC(C(=O)Nc4cccc(C)c4C)CC3)cc2CC1C` (stereo not drawn), the Potency is reported as active: 22.4 µM. With `CC(=O)Oc1ccc2ccc(=O)oc2c1` the Potency was inconclusive: 17.8 µM [inhibitor, full curve]. With `COc1ccc(/C=C2\N=C(C)OC2=O)cc1OC(C)=O` the Potency was inconclusive: 0.282 µM [inhibitor, full curve, poor fit]. In the case of `COc1ccc(N/N=C(/C#N)S(=O)(=O)c2nsc(C)c2C#N)cc1`, the “activity change, negative = inhibition” value is reported as inactive: -2.11%. With `O=S(=O)(Nc1nccs1)c1ccc(NS(=O)(=O)c2cccs2)cc1` the “activity change, negative = inhibition” value was inactive: -4.92%. With `CCc1ccc(N=C2NC(=O)/C(=C/c3cc(OC)c(O)c(OC)c3)S2)cc1` the Potency was inconclusive: 28.2 µM [inhibitor, single point]. For `COc1ccccc1N1CCN(S(=O)(=O)CCNC(=O)COc2ccc(C(C)C)cc2)CC1`, the Potency was inconclusive: 89.1 µM [inhibitor, single point]. For `COc1ccc2nc(NC(=O)C(NS(=O)(=O)c3cccc4nsnc34)C(C)C)sc2c1` (stereo not drawn), the Potency was inconclusive: 20 µM [inhibitor, full curve, poor fit]. In the case of `O=C(Cn1c(SCCOc2ccc(Cl)cc2)nc2ccccc21)N1CCCCC1`, the “activity change, negative = inhibition” value is reported as inactive: -1.79%. `Cc1oc2ccc(OCc3cccc(Cl)c3)cc2c1C(=O)O` was tested, and the “activity change, negative = inhibition” value was inactive: 22.6%. In the case of `Cc1nc(N2CCC3(CC2)OCCO3)c2nnn(Cc3ccccc3F)c2n1`, the Potency is reported as inconclusive: 11.2 µM [inhibitor, partial curve, poor fit]. For `CC(C)=Cc1oc2ccc([N+](=O)[O-])cc2c1N1CCOCC1`, the Potency was inconclusive: 89.1 µM [inhibitor, single point]. For `COc1cccc(C2C(C#N)=C(N)OC(C(C)(C)C)=C2C#N)c1` (stereo not drawn), the “activity change, negative = inhibition” value was inactive: 9.91%. In the case of `OC(COc1ccccc1Br)CN1CCNCC1` (stereo not drawn), the Potency is reported as inconclusive: 100 µM [inhibitor, single point]. For `COc1ccc(OC)c(NC(=O)CSc2nnc(CNC(=O)c3cc(OC)c(OC)c(OC)c3)o2)c1`, the activity change, negative = inhibition was inconclusive: -40% [inhibitor]. With `O=C(CCC(=O)Nc1ccc(F)cc1)N/N=C/c1ccccc1` the Potency was inconclusive: 89.1 µM [inhibitor, single point]. With `COc1cccc(C(=O)OCC(=O)NCCNC(=O)COC(=O)c2cccc(OC)c2OC)c1OC` the Potency was inconclusive: 3.55 µM [inhibitor, single point]. `Cc1ccc(/C=C2\SC(=S)N(c3cccnc3)C2=O)o1` was tested, and the “activity change, negative = inhibition” value was inactive: 3.42%. With `Cc1ccc(-c2cc(NC(=O)CCl)n(-c3ccccc3)n2)cc1` the Potency was inconclusive: 2.82 µM [inhibitor, full curve]. With `O=C(O)CN1C(=O)/C(=C\c2cc(Br)ccc2OCc2ccc([N+](=O)[O-])cc2)SC1=S` the Potency was active: 28.2 µM. For `COc1cc(/C=N/NC(=O)c2ccc(CSc3nncn3C)cc2)cc(OC)c1O`, the Potency was inconclusive: 15.8 µM [inhibitor, full curve]. For `Cc1ccccc1Cc1c(C)nc2c(C(=O)NCc3ccco3)cnn2c1C`, the Potency was active: 44.7 µM. In the case of `O=S(=O)(c1ccccc1S(=O)(=O)N1CCCCC1)N1CCCCC1`, the “activity change, negative = inhibition” value is reported as inactive: 25.6%. In the case of `CC(=O)Oc1c(Sc2ccccc2[N+](=O)[O-])c(C)nn1C(C)(C)C`, the Potency is reported as inconclusive: 8.91 µM [inhibitor, full curve, poor fit]. In the case of `CCn1c(=O)c(C(=O)NNS(=O)(=O)c2ccc(Cl)cc2)c(O)c2ccccc21`, the Potency is reported as inconclusive: 79.4 µM [inhibitor, single point]. In the case of `CCn1c2ccc(OC)cc2c2nc3ccccc3nc21`, the Potency is reported as inconclusive: 79.4 µM [inhibitor, single point]. For `O=[N+]([O-])c1ccc(-c2cc(-c3ccc(Cl)cc3)n[nH]2)cc1`, the Potency was inconclusive: 3.98 µM [inhibitor, full curve]. For `COc1ccccc1-c1c(C(F)(F)F)oc2c(CN(C)C)c(O)ccc2c1=O`, the Potency was inconclusive: 17.8 µM [inhibitor, single point]. In the case of `CCOC(=O)C(CCc1nnc(N)s1)C(=O)OCC`, the Potency is reported as inconclusive: 79.4 µM [inhibitor, single point]. For `Cc1ccc(NC(=O)CSc2n[nH]c(-c3cccnc3)n2)cc1Cl`, the Potency was inconclusive: 89.1 µM [inhibitor, single point]. With `CCCCSc1nnc2c(n1)OC(C)N(C(C)=O)c1ccccc1-2` (stereo not drawn) the Potency was inconclusive: 0.251 µM [inhibitor, full curve]. For `COc1cc(Br)cc(CNc2ccc(F)c([N+](=O)[O-])c2)c1O`, the “activity change, negative = inhibition” value was inactive: -0.572%. In the case of `COc1ccc(C=C2C(=O)OC(C)(C)OC2=O)cc1OC`, the “activity change, negative = inhibition” value is reported as inactive: 27.7%. For `CC(=O)c1ccc(NC(=O)Cn2cnc(S(=O)(=O)N3CCC(C)CC3)c2)cc1`, the Potency was inconclusive: 0.282 µM [inhibitor, full curve, poor fit]. With `Cc1ccc(OCCCSc2nc(-c3ccc(C(C)(C)C)cc3)nc3cc(=O)[nH]n23)cc1C` the Potency was inconclusive: 44.7 µM [inhibitor, partial curve, poor fit]. For `CC12CCC(=O)N1C(C(=O)Nc1nc3c(F)cc(F)cc3s1)CS2` (stereo not drawn), the Potency was inconclusive: 31.6 µM [inhibitor, full curve]. For `COc1cc(/C=N/N2CCCCC2)cc([N+](=O)[O-])c1O`, the Potency was inconclusive: 56.2 µM [inhibitor, partial curve, poor fit]. For `COc1cccc(C(=O)Nc2cccc(C(=O)OCc3cc(=O)n4c(C)csc4n3)c2)c1`, the Potency was inconclusive: 5.01 µM [inhibitor, full curve]. In the case of `NS(=O)(=O)c1ccc2nc(NC(=O)COc3ccc(Cl)cc3Cl)sc2c1`, the Potency is reported as inconclusive: 89.1 µM [inhibitor, single point]. With `O=C(CSc1nc2ccccc2c2nc3ccccc3n12)NCc1ccco1` the Potency was active: 8.91 µM. With `COc1cccc(-n2nnc(S(=O)(=O)c3ccc(C)cc3)c2N)c1` the Potency was inconclusive: 89.1 µM [inhibitor, single point]. In the case of `CCOc1ccc(-n2nc3ccc(NC(=O)c4ccc(-c5cccc(Cl)c5)o4)cc3n2)cc1`, the activity change, negative = inhibition is reported as inconclusive: -59.3% [inhibitor]. `O=C1c2cccc3cccc(c23)C(=O)N1/N=C/c1ccc(O)cc1O` was tested, and the Potency was inconclusive: 31.6 µM [inhibitor, partial curve]. With `COc1cc(C2C(C(=O)c3ccc(C)o3)=C(O)C(=O)N2c2cc(C)on2)cc(Br)c1O` (stereo not drawn) the Potency was inconclusive: 28.2 µM [inhibitor, full curve, poor fit]. With `O=c1cc(O)c2sc(Nc3ccc(F)c(Cl)c3)nc2[nH]1` the Potency was active: 56.2 µM. For `CN(C)CCN(C(=O)c1ccc2c(c1)OCCO2)c1nc2ccc(Cl)cc2s1`, the Potency was inconclusive: 89.1 µM [inhibitor, single point]. `Cn1c(N)c(N=Nc2ccc(S(N)(=O)=O)cc2)c(=O)n(C)c1=O` was tested, and the Potency was inconclusive: 39.8 µM [inhibitor, single point]. With `CC(C)(C)c1ccc(OCC(=O)NNC(=O)CCc2ccccc2)cc1` the Potency was inconclusive: 79.4 µM [inhibitor, partial curve]. With `O=C1NC(=Nc2ccccc2)S/C1=C/c1cccs1` the Potency was active: 31.6 µM. For `Nc1ccc2nc3c(=O)[nH]c(=S)[nH]c3nc2c1`, the activity change, negative = inhibition was inconclusive: -99.5% [inhibitor]. In the case of `O=C(N/N=C/c1ccco1)c1cc(-c2cccc3ccccc23)n[nH]1`, the Potency is reported as inconclusive: 39.8 µM [inhibitor, single point]. With `COc1cc(C(=O)Nc2ccc3c(c2)C(=O)c2ccccc2C3=O)cc(OC)c1OC` the Potency was inconclusive: 3.55 µM [inhibitor, full curve, poor fit]. For `CC(C)(C)C1CCC2(CC1)C(C#N)=C(SCC(=O)Nc1ccccc1)NC(=O)C2C#N` (stereo not drawn), the Potency was inconclusive: 10 µM [inhibitor, partial curve, poor fit]. `Cc1ccc(C)n1/N=C1/NC(=O)CS1` was tested, and the Potency was active: 17.8 µM. For `COc1cccc(/C=N/NC(=O)c2cc3cc([N+](=O)[O-])ccc3s2)c1O`, the Potency was active: 3.55 µM. `CC(C)NS(=O)(=O)c1ccc(NC(=O)NC2CCCCC2)cc1` was tested, and the Potency was inconclusive: 89.1 µM [inhibitor, single point]. `CCN(CC)c1ccc(-c2nc(-c3ccco3)no2)cc1[N+](=O)[O-]` was tested, and the Potency was inconclusive: 12.6 µM [inhibitor, full curve, poor fit]. For `Cc1ccc(Nc2nc3c(s2)CCC3)c(C)c1`, the Potency was inconclusive: 89.1 µM [inhibitor, single point]. With `COc1ccc(N2CC(NC(=O)COc3ccc4ccccc4c3)CC2=O)cc1OC` (stereo not drawn) the “activity change, negative = inhibition” value was inactive: 12.3%. For `CC1(C)CC2(CC(c3ccccc3F)c3ccc(O)c(O)c3O2)NC(=S)N1` (stereo not drawn), the Potency was inconclusive: 39.8 µM [inhibitor, single point]. In the case of `S=c1nc(-c2ccccc2Br)[nH][nH]1`, the “activity change, negative = inhibition” value is reported as inactive: 37.7%. `Oc1ccc(/C=N/Nc2nc(N3CCCC3)nc(N3CCCC3)n2)cc1O` was tested, and the Potency was inconclusive: 1.78 µM [inhibitor, full curve]. For `Cc1[nH]c2ccccc2c1/C=N/NC(=O)c1cccc(F)c1`, the Potency was inconclusive: 10 µM [inhibitor, partial curve]. For `CCOC(=O)c1cccc2c1N[C@@H](c1ccc(F)cc1)[C@H]1CC=C[C@@H]21`, the Potency was inconclusive: 0.1 µM [inhibitor, full curve, poor fit]. In the case of `CN(C)S(=O)(=O)c1cccc(NC(=S)N/N=C/c2ccc(O)c(O)c2O)c1`, the “activity change, negative = inhibition” value is reported as inactive: -11.1%.
